This is one part of the list.
Columns and labels:
Assay in all cases: log2 fold change, soluble protein after heating vs DMSO (PISA); higher = thermal stabilisation; K562 cells, 10 uM, 30 min; active = over 0.2 and 3.5 SD of the protein, either way, in both replicates (recomputed)
[1] = compound: CC[C@@H]1C(=O)N(C)c2cnc(Nc3ccc(C(=O)NC4CCN(C)CC4)cc3OC)nc2N1C1CCCC1
Outline: (§1)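 K562 cells at 2×10^6 cells/mL were treated for 30 min with 10 μM compound, and aliquots were heated for 3 min over 48°C-58°C before pooling. Extraction used PBS with 0.5% NP-40 at 4°C, and soluble protein was the supernatant after 21,000xg for 90 min, measured by TMTpro 16plex LC-MS/MS with channel sums equalised. Thermal stability values, relative to control samples and from duplicates, are log2 fold changes.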

Sequences of proteins named here, by UniProt entry; tags and fusion partners are left off. A change or cut given only in a name is not applied to a line headed by its entry.
UniProt Q9UBB6: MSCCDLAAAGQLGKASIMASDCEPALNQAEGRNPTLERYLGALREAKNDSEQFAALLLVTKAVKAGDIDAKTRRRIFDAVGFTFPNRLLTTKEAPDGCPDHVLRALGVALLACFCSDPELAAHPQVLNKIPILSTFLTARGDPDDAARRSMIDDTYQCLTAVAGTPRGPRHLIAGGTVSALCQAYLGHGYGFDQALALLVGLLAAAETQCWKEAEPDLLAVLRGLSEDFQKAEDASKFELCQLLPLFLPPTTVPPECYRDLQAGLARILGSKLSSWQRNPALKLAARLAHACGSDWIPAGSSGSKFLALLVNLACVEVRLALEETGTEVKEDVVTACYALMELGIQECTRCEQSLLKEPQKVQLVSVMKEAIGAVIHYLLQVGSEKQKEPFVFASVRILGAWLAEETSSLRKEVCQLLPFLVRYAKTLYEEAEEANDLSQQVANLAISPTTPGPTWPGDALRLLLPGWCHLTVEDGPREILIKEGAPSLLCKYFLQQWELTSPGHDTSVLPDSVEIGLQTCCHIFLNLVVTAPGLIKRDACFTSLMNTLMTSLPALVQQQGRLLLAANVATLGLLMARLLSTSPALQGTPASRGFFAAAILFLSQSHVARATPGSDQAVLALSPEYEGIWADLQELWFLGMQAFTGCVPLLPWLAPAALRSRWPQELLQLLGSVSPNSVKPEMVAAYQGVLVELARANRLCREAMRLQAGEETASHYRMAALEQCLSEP
UniProt P19404, whole entry, looked up: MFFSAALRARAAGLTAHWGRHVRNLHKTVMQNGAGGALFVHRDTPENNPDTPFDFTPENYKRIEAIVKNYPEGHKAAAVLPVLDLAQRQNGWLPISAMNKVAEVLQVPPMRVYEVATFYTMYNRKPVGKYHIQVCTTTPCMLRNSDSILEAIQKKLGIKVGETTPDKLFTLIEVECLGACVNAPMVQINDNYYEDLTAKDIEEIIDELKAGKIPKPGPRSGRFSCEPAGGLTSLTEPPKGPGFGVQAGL
UniProt Q9BXJ9: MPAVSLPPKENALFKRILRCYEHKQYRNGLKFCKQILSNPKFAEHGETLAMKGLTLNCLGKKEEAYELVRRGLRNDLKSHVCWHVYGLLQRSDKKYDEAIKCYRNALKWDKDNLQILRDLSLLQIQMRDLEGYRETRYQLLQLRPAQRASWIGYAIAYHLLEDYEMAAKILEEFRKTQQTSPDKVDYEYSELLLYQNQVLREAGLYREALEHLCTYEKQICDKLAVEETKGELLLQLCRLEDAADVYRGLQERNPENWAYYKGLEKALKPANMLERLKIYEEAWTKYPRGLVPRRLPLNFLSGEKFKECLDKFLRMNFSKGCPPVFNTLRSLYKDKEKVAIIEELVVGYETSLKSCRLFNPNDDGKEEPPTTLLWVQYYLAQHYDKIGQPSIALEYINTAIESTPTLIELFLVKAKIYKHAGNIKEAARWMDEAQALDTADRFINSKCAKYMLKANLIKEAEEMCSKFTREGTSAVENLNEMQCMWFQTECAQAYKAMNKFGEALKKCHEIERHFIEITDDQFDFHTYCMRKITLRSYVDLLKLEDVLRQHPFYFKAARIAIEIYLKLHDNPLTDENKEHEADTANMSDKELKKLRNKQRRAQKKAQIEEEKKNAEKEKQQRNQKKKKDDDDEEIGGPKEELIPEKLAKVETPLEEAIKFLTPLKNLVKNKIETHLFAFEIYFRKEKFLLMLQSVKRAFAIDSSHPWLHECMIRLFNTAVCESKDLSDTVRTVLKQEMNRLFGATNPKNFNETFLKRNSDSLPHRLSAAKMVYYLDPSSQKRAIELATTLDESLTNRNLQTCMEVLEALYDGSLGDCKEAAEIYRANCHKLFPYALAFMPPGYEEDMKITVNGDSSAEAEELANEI
UniProt O95167, whole entry, looked up: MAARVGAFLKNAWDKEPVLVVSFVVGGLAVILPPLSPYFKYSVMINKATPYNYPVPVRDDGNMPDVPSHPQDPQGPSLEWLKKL
UniProt O95544: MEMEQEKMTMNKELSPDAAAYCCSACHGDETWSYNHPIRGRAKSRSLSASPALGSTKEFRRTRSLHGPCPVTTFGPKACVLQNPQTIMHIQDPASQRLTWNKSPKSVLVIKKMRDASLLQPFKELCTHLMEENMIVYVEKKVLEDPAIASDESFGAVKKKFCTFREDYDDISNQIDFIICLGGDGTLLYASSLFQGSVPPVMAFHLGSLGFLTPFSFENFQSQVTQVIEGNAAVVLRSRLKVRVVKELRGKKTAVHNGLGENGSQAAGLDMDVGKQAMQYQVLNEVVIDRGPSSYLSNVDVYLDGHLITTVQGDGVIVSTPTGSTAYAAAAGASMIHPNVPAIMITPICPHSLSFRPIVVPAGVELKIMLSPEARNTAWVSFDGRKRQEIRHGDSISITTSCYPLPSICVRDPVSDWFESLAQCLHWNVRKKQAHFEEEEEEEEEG
UniProt Q15843, whole entry, looked up: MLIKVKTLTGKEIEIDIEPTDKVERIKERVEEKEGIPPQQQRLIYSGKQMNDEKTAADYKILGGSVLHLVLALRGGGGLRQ
UniProt Q09161: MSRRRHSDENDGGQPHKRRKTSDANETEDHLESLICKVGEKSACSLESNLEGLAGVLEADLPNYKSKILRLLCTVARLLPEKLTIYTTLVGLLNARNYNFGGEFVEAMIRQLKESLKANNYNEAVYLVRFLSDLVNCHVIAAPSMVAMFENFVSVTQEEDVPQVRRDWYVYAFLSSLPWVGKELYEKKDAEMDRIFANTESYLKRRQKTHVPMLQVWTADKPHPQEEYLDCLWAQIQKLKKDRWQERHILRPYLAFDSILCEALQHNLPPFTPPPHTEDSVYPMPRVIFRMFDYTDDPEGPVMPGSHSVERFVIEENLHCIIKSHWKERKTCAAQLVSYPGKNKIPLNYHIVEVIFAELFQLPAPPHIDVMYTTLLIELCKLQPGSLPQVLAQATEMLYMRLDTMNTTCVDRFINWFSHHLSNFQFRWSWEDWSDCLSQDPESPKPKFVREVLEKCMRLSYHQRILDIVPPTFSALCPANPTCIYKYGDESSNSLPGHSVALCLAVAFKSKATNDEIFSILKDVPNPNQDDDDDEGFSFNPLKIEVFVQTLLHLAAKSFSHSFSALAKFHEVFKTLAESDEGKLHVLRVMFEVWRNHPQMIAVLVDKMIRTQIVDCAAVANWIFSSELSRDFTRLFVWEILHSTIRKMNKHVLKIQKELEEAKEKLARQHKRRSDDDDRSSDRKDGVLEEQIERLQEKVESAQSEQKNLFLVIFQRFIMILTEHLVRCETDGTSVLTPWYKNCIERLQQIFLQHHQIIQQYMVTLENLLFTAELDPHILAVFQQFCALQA
UniProt Q9NX14, whole entry, looked up: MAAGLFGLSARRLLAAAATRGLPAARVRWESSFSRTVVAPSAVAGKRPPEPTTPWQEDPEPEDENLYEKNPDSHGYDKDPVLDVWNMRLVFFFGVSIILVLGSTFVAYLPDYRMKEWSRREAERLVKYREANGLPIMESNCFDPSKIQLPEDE
UniProt Q147X3: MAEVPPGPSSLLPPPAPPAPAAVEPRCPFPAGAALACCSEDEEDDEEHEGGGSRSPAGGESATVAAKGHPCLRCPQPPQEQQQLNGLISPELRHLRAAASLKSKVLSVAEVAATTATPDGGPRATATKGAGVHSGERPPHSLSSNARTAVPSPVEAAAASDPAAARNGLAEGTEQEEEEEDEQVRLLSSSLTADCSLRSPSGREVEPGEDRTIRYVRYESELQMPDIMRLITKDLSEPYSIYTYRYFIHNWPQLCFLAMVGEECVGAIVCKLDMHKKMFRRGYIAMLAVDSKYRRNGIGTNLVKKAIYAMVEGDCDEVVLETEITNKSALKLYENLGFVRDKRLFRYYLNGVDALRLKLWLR
UniProt O43674, whole entry, looked up: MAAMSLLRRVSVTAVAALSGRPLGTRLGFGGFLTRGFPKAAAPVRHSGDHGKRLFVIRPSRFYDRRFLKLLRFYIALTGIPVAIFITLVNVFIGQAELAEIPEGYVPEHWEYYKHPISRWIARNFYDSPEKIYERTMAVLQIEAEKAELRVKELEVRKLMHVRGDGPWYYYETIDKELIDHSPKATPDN
UniProt P52848: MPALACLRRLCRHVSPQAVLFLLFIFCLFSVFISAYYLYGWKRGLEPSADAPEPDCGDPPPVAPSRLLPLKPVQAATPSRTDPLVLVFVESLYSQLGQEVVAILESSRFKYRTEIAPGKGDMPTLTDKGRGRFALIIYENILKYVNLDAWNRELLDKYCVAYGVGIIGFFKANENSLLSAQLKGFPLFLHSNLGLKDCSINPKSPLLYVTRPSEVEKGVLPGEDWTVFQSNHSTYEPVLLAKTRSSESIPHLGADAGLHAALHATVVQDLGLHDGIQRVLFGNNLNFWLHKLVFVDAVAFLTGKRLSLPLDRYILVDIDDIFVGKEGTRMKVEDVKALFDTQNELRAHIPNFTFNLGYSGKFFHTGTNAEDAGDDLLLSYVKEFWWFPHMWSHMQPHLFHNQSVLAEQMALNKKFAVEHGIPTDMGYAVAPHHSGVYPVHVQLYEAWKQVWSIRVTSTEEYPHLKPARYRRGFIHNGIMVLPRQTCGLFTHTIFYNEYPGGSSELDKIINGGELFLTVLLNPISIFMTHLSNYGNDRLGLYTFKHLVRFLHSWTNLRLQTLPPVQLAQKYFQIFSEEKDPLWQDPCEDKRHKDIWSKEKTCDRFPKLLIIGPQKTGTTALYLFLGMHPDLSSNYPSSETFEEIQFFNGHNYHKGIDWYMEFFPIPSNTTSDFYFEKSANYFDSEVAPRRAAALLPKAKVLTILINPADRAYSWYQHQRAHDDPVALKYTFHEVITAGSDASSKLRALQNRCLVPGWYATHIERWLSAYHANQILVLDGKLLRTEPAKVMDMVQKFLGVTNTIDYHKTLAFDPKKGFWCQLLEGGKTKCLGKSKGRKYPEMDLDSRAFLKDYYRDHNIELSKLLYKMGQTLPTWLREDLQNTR
UniProt O43776: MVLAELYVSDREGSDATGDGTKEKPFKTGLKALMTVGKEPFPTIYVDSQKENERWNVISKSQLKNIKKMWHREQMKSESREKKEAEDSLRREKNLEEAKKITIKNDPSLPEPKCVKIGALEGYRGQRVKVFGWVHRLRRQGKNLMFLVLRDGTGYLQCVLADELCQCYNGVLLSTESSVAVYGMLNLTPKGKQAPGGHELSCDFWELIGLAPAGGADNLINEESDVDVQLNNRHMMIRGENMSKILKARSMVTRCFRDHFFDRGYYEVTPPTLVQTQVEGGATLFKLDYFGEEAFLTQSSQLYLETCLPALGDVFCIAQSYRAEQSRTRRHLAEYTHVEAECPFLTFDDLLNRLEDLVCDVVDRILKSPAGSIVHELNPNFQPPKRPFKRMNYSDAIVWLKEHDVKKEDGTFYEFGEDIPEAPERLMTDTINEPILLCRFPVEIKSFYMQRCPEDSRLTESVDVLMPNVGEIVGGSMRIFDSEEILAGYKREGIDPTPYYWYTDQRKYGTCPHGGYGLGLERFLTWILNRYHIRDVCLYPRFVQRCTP
UniProt Q9BU61: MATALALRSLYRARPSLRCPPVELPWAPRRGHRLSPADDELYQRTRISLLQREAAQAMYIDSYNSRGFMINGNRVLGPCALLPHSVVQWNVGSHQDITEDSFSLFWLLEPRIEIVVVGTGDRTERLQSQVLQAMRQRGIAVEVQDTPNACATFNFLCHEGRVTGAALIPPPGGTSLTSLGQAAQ
UniProt Q9NVZ3: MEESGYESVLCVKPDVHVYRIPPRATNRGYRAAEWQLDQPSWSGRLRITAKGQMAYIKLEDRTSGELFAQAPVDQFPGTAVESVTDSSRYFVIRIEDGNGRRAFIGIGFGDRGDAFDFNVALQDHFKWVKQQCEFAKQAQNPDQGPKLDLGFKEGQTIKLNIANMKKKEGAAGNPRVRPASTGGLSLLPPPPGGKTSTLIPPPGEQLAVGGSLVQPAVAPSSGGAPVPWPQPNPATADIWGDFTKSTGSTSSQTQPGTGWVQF
UniProt Q9UJ70, whole entry, looked up: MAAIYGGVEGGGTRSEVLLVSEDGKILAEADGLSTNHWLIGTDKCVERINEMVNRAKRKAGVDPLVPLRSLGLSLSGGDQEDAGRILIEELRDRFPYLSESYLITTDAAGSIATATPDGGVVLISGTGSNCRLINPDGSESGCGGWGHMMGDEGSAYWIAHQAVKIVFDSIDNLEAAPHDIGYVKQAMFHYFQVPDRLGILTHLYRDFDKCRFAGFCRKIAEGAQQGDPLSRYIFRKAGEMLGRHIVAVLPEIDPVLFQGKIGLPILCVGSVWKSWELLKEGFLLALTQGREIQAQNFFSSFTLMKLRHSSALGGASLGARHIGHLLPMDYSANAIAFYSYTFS
UniProt Q9UGV2: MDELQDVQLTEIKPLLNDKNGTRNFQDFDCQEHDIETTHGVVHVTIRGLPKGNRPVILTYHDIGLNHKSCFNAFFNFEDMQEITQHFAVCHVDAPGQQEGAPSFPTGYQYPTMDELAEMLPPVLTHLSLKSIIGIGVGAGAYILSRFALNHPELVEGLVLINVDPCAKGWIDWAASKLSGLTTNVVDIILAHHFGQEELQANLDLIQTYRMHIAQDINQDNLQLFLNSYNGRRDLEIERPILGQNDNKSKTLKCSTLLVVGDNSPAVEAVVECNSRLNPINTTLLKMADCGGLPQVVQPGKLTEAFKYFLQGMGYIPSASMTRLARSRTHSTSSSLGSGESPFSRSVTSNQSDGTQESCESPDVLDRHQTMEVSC

volasertib = compound: CC[C@@H]1C(=O)N(C)c2cnc(Nc3ccc(C(=O)N[C@H]4CC[C@H](N5CCN(CC6CC6)CC5)CC4)cc3OC)nc2N1C(C)C [volasertib]
Outline: as §1

[2] = compound: CC[C@H](C)N1C=C(C2=C(C=C(C=C21)C3=CN=C(C=C3)N4CCNCC4)C(=O)NCC5=C(C=C(NC5=O)C)C)C
Outline: as §1

epoxomicin = compound: CC[C@H](C)[C@@H](C(=O)N[C@@H]([C@@H](C)O)C(=O)N[C@@H](CC(C)C)C(=O)[C@]1(CO1)C)NC(=O)[C@H]([C@@H](C)CC)N(C)C(=O)C [epoxomicin]
Outline: as §1

[3] = compound: CCn1c(C(=O)N(C2CC2)C2CC2)cc2c3c(ncn3C)c(Nc3cc(C)n(C)n3)nc21
Outline: as §1

[4] = compound: CCn1cc(-c2ccnc3[nH]c(-c4cccc(CN(C)C)c4)cc23)c(-c2ccc(NC(=O)N(C)C)cc2)n1
Outline: as §1

[5] = compound: CN(C)CC(=O)Nc1ccc2[nH]c(=O)c3ccccc3c2c1
Outline: as §1

rosiglitazone = compound: CN(CCOC1=CC=C(C=C1)C[C@H]2C(=O)NC(=O)S2)C3=CC=CC=N3 (racemic) [rosiglitazone]
Outline: as §1

[6] = compound: CN1C2=C(C3=C1C(=O)N(N=C3)CC4=CC(=CC=C4)N)SC(=C2)S(=O)C
Outline: as §1

[7] = compound: CN1CCC(CNc2ccc3ncc(-c4cccc(OC(F)(F)F)c4)n3n2)CC1
Outline: as §1

saracatinib = compound: CN1CCN(CCOc2cc(OC3CCOCC3)c3c(Nc4c(Cl)ccc5c4OCO5)ncnc3c2)CC1 [saracatinib]
Outline: as §1

sotrastaurin = compound: CN1CCN(c2nc(C3=C(c4c[nH]c5ccccc45)C(=O)NC3=O)c3ccccc3n2)CC1 [sotrastaurin]
Outline: as §1

alvocidib = compound: CN1CC[C@H](c2c(O)cc(O)c3c(=O)cc(-c4ccccc4Cl)oc23)[C@H](O)C1 [alvocidib]
Outline: as §1

Tubastatin A = compound: CN1CCc2c(c3ccccc3n2Cc2ccc(C(=O)NO)cc2)C1 [Tubastatin A]
Outline: as §1

[8] = compound: CNC(=O)C1=CC=CC=C1NC2=NC(=NC=C2Cl)NC3=C(C=C(C=C3)N4CCOCC4)OC
Outline: as §1

defactinib = compound: CNC(=O)c1ccc(Nc2ncc(C(F)(F)F)c(NCc3nccnc3N(C)S(C)(=O)=O)n2)cc1 [defactinib]
Outline: as §1

rucaparib = compound: CNCc1ccc(-c2[nH]c3cc(F)cc4c3c2CCNC4=O)cc1 [rucaparib]
Outline: as §1

[9] = compound: CNc1nc(-c2ccc3c(N)n[nH]c3c2)cc(N2C[C@@H](C(=O)NC3CCCCC3)CC[C@H]2C)n1
Outline: as §1

encorafenib = compound: COC(=O)N[C@@H](C)CNc1nccc(-c2cn(C(C)C)nc2-c2cc(Cl)cc(NS(C)(=O)=O)c2F)n1 [encorafenib]
Outline: as §1

[10] = compound: COC(=O)[C@H](CCSC)NC(=O)C1=C(C=C(C=C1)NC[C@H](CS)N)C2=CC=CC=C2
Outline: as §1

Measured: log2 fold change

NCDN isoform 3 (UniProt Q9UBB6)
inactive: [1] -0.117 | volasertib -0.083 | [2] 0.169 | epoxomicin 0.009 | [3] -0.091 | [4] 0.034 | [5] 0.043 | rosiglitazone 0.059 | [6] 0.014 | [7] -0.114 | saracatinib -0.046 | sotrastaurin -0.059 | alvocidib -0.136 | Tubastatin A 0.047 | [8] 0.024 | defactinib -0.148 | rucaparib 0.077 | [9] -0.015 | encorafenib 0.053 | [10] -0.06

NDUFV2 (UniProt P19404)
inactive: [1] -0.019 | volasertib 0.002 | [2] -0.013 | epoxomicin 0 | [3] 0.002 | [4] -0.022 | [5] -0.026 | rosiglitazone 0.001 | [6] 0.015 | [7] -0.072 | saracatinib 0.046 | sotrastaurin -0.014 | alvocidib -0.016 | Tubastatin A -0.01 | [8] -0.023 | defactinib 0.019 | rucaparib 0.004 | [9] -0.044 | encorafenib -0.079 | [10] 0.046

NAA15 (UniProt Q9BXJ9)
inactive: [1] -0.015 | volasertib -0.053 | [2] 0.04 | epoxomicin 0.025 | [3] 0.023 | [4] -0.024 | [5] 0.006 | rosiglitazone 0.024 | [6] -0.093 | [7] -0.039 | saracatinib 0.014 | sotrastaurin 0.017 | alvocidib -0.084 | Tubastatin A -0.012 | [8] -0.002 | defactinib -0.05 | rucaparib -0.035 | [9] -0.02 | encorafenib 0.001 | [10] -0.007

NDUFA3 (UniProt O95167)
inactive: [1] -0.038 | volasertib -0.177 | [2] -0.082 | epoxomicin 0.236 | [3] -0.131 | [4] -0.047 | [5] 0.092 | rosiglitazone 0.009 | [6] 0.056 | [7] -0.094 | saracatinib 0.026 | sotrastaurin 0.054 | alvocidib 0 | Tubastatin A 0.063 | [8] 0.041 | defactinib -0.023 | rucaparib -0.006 | [9] -0.017 | encorafenib -0.082 | [10] 0.158

NADK (UniProt O95544)
inactive: [1] 0.043 | volasertib 0.011 | [2] -0.001 | epoxomicin -0.031 | [3] 0.002 | [4] 0.007 | [5] -0.088 | rosiglitazone -0.004 | [6] -0.007 | [7] -0.011 | saracatinib 0.012 | sotrastaurin 0.04 | alvocidib -0.013 | Tubastatin A 0 | [8] -0.06 | defactinib -0.021 | rucaparib 0.012 | [9] -0.024 | encorafenib -0.014 | [10] 0.041

NEDD8 (UniProt Q15843)
inactive: [1] 0.086 | volasertib 0.062 | [2] -0.015 | epoxomicin 0.211 | [3] -0.054 | [4] 0.317 | [5] 0.072 | rosiglitazone 0.013 | [6] -0.027 | [7] 0.115 | saracatinib 0 | sotrastaurin 0.027 | alvocidib -0.094 | Tubastatin A 0.057 | [8] -0.039 | defactinib -0.041 | rucaparib -0.01 | [9] -0.017 | encorafenib -0.01 | [10] -0.063

NCBP1 (UniProt Q09161)
inactive: [1] -0.006 | volasertib -0.127 | [2] 0.012 | epoxomicin 0.014 | [3] 0.001 | [4] -0.018 | [5] 0.045 | rosiglitazone 0.038 | [6] -0.015 | [7] -0.001 | saracatinib 0.036 | sotrastaurin 0.012 | alvocidib 0 | Tubastatin A -0.027 | [8] -0.013 | defactinib -0.007 | rucaparib 0.006 | [9] -0.013 | encorafenib -0.009 | [10] -0.01

NDUFB11 isoform 2 (UniProt Q9NX14)
inactive: [1] -0.053 | volasertib -0.034 | [2] -0.011 | epoxomicin 0.034 | [3] 0.038 | [4] 0.007 | [5] -0.013 | rosiglitazone 0 | [6] 0.024 | [7] -0.008 | saracatinib -0.025 | sotrastaurin -0.007 | alvocidib 0.014 | Tubastatin A 0.013 | [8] 0.039 | defactinib -0.024 | rucaparib -0.02 | [9] 0 | encorafenib -0.029 | [10] -0.032

NAA30 (UniProt Q147X3)
inactive: [1] -0.036 | volasertib -0.007 | [2] 0.036 | epoxomicin -0.119 | [3] -0.017 | [4] -0.291 | [5] -0.049 | rosiglitazone -0.059 | [6] 0.001 | [7] 0.099 | saracatinib 0.013 | sotrastaurin 0.063 | alvocidib 0.011 | Tubastatin A 0.019 | [8] -0.028 | defactinib -0.055 | rucaparib 0.052 | [9] 0.034 | encorafenib -0.036 | [10] -0.017

NDUFB5 (UniProt O43674)
inactive: [1] -0.059 | volasertib -0.013 | [2] -0.039 | epoxomicin 0.008 | [3] -0.028 | [4] 0.026 | [5] 0.025 | rosiglitazone -0.037 | [6] -0.003 | [7] -0.123 | saracatinib 0.079 | sotrastaurin -0.001 | alvocidib 0.005 | Tubastatin A -0.006 | [8] -0.021 | defactinib -0.007 | rucaparib -0.035 | [9] -0.019 | encorafenib 0.008 | [10] 0.035

NDST1 (UniProt P52848)
inactive: [1] -0.015 | volasertib -0.031 | [2] 0.076 | epoxomicin -0.052 | [3] -0.023 | [4] 0.053 | [5] 0.001 | rosiglitazone 0.059 | [6] 0.013 | [7] 0.009 | saracatinib 0.03 | sotrastaurin -0.023 | alvocidib 0.009 | Tubastatin A 0.05 | [8] -0.022 | defactinib -0.02 | rucaparib 0.084 | [9] 0.016 | encorafenib -0.075 | [10] 0.013

NARS1 (UniProt O43776)
inactive: [1] 0.017 | volasertib 0.065 | [2] -0.023 | epoxomicin -0.001 | [3] 0.025 | [4] 0.037 | [5] -0.04 | rosiglitazone 0.007 | [6] -0.013 | [7] 0.022 | saracatinib 0.01 | sotrastaurin 0.051 | alvocidib 0.032 | Tubastatin A -0.051 | [8] -0.022 | defactinib 0.011 | rucaparib -0.017 | [9] -0.061 | encorafenib -0.017 | [10] 0.064

NDUFAF3 (UniProt Q9BU61)
inactive: [1] -0.011 | volasertib -0.008 | [2] 0 | epoxomicin 0.006 | [3] 0.012 | [4] -0.049 | [5] 0.198 | rosiglitazone 0.011 | [6] -0.1 | [7] -0.157 | saracatinib 0.105 | sotrastaurin -0.042 | alvocidib -0.099 | Tubastatin A -0.012 | [8] -0.002 | defactinib 0.023 | rucaparib -0.035 | [9] 0.031 | encorafenib -0.003 | [10] -0.008

NECAP2 (UniProt Q9NVZ3)
inactive: [1] -0.048 | volasertib -0.094 | [2] 0.053 | epoxomicin 0.037 | [3] 0.007 | [4] -0.018 | [5] 0.036 | rosiglitazone 0.028 | [6] -0.083 | [7] -0.017 | saracatinib 0.058 | sotrastaurin -0.033 | alvocidib -0.038 | Tubastatin A 0.021 | [8] -0.033 | defactinib -0.041 | rucaparib -0.023 | [9] 0.025 | encorafenib 0.017 | [10] 0.012

Pulled one by one from above (2):
NAA30 (UniProt Q147X3)
inactive: [1] -0.036 | volasertib -0.007 | [2] 0.036 | epoxomicin -0.119 | [3] -0.017 | [4] -0.291 | [5] -0.049 | rosiglitazone -0.059 | [6] 0.001 | [7] 0.099 | saracatinib 0.013 | sotrastaurin 0.063 | alvocidib 0.011 | Tubastatin A 0.019 | [8] -0.028 | defactinib -0.055 | rucaparib 0.052 | [9] 0.034 | encorafenib -0.036 | [10] -0.017

NCDN isoform 3 (UniProt Q9UBB6)
inactive: [1] -0.117 | volasertib -0.083 | [2] 0.169 | epoxomicin 0.009 | [3] -0.091 | [4] 0.034 | [5] 0.043 | rosiglitazone 0.059 | [6] 0.014 | [7] -0.114 | saracatinib -0.046 | sotrastaurin -0.059 | alvocidib -0.136 | Tubastatin A 0.047 | [8] 0.024 | defactinib -0.148 | rucaparib 0.077 | [9] -0.015 | encorafenib 0.053 | [10] -0.06

Additional results.

NAGK isoform 2 (UniProt Q9UJ70)
inactive: [1] 0.056 | volasertib 0.038 | [2] 0.014 | epoxomicin -0.084 | [3] -0.009 | [4] 0.035 | [5] 0.031 | rosiglitazone 0.028 | [6] -0.005 | [7] -0.055 | saracatinib 0.037 | sotrastaurin 0.012 | alvocidib 0.009 | Tubastatin A 0.013 | [8] -0.027 | defactinib -0.042 | rucaparib -0.003 | [9] -0.012 | encorafenib -0.043 | [10] 0.022

NDRG3 (UniProt Q9UGV2)
inactive: [1] -0.019 | volasertib -0.142 | [2] -0.01 | epoxomicin 0.007 | [3] 0 | [4] -0.152 | [5] 0.023 | rosiglitazone 0.025 | [6] -0.095 | [7] 0.1 | saracatinib 0.042 | sotrastaurin -0.059 | alvocidib -0.005 | Tubastatin A 0.001 | [8] 0.054 | defactinib -0.027 | rucaparib -0.161 | [9] 0.015 | encorafenib 0.032 | [10] 0.059

Source: the supplement of paper PMC10849652
